From the supplement of paper PMC10849652
Some of the results follow.

Chains of the proteins cited; added tags and fusions are not shown. Lines headed by an entry give the natural chain unless they say otherwise; changes in a name come on top.
UniProt Q13263: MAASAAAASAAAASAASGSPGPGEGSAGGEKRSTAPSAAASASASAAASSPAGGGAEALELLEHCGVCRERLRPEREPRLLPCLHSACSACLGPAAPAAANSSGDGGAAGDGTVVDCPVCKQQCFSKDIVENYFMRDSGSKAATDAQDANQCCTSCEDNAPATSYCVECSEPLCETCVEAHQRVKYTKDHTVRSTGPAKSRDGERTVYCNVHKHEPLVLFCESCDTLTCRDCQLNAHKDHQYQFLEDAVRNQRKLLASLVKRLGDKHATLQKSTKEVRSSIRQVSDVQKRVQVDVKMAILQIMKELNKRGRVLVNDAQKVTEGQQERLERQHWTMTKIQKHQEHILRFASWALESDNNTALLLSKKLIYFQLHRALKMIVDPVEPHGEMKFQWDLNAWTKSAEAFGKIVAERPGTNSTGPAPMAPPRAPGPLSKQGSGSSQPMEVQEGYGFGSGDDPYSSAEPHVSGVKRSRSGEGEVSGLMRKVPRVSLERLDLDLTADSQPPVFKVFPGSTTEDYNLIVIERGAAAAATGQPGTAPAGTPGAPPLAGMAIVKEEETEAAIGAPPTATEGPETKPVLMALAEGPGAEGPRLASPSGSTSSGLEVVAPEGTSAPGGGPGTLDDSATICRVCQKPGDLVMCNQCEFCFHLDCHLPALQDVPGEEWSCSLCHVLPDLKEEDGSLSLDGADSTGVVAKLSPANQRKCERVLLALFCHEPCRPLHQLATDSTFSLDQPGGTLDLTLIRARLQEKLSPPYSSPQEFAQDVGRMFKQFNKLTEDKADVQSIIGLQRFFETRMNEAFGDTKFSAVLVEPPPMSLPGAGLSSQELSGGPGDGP
UniProt P07951, whole entry, looked up: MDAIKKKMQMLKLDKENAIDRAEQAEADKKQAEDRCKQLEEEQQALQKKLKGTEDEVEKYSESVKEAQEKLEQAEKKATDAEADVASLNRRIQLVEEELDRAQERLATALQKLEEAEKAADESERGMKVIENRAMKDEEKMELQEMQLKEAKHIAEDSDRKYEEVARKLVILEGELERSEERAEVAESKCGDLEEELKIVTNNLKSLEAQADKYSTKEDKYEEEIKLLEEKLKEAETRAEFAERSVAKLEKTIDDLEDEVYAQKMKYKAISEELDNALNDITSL
UniProt O14787: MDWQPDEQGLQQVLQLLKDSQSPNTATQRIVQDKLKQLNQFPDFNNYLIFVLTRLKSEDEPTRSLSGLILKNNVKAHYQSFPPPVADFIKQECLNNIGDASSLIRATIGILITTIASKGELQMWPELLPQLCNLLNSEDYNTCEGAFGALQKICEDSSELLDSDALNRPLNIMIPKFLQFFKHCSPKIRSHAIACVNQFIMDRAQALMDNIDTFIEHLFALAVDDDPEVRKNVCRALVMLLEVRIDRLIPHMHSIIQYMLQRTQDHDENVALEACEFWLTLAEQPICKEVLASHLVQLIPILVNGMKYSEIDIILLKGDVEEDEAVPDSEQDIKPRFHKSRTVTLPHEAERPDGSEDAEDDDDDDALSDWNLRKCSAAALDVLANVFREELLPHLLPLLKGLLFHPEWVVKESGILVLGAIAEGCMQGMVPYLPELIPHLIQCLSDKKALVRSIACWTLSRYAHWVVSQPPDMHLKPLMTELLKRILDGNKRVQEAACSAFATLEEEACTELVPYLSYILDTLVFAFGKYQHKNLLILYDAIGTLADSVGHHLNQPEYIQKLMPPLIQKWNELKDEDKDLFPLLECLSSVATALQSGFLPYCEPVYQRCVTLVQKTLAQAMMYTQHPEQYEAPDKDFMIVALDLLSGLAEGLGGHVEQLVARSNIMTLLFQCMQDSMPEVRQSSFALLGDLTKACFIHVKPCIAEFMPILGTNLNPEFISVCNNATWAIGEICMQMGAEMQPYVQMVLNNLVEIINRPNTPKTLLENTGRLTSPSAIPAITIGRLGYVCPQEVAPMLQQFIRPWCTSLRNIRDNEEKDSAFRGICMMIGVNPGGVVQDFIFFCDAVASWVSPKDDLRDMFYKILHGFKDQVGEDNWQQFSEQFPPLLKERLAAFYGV
UniProt Q8N4H5: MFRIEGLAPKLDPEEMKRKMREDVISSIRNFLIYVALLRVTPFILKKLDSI
UniProt Q15629: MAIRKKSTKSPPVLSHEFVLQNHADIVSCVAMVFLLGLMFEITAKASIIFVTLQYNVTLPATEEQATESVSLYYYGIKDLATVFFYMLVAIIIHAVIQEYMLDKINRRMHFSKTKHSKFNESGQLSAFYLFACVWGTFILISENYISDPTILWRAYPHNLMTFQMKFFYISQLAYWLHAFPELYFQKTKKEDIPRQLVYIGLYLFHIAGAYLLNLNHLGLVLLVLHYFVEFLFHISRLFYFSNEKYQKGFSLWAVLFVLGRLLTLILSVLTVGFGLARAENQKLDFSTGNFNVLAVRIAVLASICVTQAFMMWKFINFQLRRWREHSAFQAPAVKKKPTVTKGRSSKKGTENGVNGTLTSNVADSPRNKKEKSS
UniProt Q15035: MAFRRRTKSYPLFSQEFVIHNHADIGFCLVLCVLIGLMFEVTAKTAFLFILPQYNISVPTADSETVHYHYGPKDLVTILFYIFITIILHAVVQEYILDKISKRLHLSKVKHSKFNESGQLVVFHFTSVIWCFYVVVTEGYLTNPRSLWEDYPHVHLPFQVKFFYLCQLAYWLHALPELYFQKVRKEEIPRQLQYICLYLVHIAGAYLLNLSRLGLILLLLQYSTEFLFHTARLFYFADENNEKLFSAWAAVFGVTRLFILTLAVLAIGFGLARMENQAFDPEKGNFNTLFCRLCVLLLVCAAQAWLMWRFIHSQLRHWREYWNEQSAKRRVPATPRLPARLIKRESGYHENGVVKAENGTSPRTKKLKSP
UniProt Q9H4I3: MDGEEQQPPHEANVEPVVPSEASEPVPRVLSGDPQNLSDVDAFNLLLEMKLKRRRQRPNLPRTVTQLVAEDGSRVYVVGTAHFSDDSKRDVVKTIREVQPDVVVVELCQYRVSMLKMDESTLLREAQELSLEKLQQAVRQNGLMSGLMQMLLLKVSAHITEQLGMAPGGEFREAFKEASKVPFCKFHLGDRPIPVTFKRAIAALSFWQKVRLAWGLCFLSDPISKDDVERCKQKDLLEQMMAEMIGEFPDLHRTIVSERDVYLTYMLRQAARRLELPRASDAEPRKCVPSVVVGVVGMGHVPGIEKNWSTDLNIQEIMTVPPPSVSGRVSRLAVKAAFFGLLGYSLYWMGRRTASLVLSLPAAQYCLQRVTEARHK
UniProt Q96GJ1: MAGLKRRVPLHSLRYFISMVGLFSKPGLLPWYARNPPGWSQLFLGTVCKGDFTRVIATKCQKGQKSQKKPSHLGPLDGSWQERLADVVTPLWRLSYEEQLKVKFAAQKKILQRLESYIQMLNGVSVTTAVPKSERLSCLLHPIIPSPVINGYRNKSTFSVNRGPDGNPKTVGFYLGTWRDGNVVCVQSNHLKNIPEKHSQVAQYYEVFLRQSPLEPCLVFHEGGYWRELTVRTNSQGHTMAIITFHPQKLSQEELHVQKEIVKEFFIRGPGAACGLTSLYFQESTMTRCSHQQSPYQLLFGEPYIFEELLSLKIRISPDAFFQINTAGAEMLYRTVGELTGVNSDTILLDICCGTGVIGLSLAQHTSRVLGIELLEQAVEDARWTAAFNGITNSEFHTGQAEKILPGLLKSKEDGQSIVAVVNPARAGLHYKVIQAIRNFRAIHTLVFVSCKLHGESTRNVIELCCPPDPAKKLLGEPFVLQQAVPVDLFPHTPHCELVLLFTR
UniProt Q15642: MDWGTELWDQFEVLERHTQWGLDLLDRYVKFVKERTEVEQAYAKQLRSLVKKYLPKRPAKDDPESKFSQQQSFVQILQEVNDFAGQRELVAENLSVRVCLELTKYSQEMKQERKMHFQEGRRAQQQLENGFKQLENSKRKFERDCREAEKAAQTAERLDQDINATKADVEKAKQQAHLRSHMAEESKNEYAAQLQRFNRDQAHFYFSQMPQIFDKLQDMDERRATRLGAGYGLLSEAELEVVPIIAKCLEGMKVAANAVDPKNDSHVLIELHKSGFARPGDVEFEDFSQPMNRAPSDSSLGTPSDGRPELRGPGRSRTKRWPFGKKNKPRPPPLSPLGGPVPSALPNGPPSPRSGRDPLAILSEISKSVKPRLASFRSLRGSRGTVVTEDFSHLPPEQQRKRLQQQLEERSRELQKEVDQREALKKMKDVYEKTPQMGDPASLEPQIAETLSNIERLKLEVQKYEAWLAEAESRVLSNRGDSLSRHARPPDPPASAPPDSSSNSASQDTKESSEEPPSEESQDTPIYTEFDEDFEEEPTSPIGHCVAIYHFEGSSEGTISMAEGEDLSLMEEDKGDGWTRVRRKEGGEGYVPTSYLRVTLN
UniProt O75865, whole entry, looked up: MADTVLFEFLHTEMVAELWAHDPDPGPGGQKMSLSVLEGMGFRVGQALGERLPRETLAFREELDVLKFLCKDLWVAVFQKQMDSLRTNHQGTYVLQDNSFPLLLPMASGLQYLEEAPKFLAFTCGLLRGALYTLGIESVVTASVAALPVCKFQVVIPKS
UniProt Q15388, whole entry, looked up: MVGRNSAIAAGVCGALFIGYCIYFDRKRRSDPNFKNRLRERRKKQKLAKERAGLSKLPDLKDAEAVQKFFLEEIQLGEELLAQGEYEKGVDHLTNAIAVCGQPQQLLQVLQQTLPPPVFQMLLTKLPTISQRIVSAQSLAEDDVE
UniProt O43617, whole entry, looked up: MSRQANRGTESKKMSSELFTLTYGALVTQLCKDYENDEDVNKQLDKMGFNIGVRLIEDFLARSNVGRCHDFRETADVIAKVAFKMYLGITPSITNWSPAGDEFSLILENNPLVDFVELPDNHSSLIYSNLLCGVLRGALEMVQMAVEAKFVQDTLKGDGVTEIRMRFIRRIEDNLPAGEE
UniProt P49815: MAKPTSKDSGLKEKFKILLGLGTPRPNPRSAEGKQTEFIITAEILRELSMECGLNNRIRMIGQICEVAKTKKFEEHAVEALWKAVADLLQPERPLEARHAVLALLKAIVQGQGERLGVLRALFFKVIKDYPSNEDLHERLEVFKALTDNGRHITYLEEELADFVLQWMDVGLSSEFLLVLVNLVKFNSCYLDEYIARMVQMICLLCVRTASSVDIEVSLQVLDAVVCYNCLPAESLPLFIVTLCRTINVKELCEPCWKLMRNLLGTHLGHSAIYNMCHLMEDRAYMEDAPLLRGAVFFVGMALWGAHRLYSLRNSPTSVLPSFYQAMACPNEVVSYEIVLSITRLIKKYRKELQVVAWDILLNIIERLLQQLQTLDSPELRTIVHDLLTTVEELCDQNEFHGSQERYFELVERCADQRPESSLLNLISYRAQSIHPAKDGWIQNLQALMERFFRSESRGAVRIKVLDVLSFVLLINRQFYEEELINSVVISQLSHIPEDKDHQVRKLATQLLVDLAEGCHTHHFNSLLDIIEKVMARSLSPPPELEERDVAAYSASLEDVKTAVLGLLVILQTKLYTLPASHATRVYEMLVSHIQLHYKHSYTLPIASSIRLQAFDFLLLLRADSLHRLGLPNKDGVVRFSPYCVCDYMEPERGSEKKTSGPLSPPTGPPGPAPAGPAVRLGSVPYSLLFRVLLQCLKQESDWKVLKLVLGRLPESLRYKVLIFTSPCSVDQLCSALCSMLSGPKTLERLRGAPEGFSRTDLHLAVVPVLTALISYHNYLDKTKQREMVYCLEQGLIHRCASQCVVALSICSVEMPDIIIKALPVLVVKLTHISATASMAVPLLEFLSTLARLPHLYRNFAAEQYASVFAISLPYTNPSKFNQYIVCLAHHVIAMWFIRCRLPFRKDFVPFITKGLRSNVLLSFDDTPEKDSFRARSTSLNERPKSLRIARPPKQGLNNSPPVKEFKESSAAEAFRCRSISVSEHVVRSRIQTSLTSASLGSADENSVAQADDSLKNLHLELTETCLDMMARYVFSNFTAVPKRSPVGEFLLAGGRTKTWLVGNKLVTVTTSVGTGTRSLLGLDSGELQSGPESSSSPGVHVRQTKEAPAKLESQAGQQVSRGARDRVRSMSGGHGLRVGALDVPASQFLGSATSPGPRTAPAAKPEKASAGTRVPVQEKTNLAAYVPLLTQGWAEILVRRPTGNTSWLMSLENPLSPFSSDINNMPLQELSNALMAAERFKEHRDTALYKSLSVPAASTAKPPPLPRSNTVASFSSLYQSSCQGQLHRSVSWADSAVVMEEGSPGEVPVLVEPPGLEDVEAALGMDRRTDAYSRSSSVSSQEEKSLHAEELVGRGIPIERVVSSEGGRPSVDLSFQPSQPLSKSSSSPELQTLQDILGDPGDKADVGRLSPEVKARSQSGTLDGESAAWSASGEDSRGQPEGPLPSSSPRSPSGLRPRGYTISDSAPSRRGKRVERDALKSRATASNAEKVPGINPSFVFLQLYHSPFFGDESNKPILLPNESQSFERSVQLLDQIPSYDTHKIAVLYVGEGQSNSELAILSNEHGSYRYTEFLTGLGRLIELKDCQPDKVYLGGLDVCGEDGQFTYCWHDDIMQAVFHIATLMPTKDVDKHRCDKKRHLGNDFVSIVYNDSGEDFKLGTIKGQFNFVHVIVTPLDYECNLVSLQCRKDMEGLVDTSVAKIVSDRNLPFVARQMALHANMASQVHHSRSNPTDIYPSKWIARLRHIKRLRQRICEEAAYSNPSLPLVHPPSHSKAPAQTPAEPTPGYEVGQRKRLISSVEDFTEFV

Compound: CC[C@@H]1C(=O)N(C)c2cnc(Nc3ccc(C(=O)NC4CCN(C)CC4)cc3OC)nc2N1C1CCCC1
Assay: log2 fold change, soluble protein after heating vs DMSO (PISA); higher = thermal stabilisation; K562 cells, 10 uM, 30 min; active = over 0.2 and 3.5 SD of the protein, either way, in both replicates (recomputed)
In short: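 K562 cells at 2×10^6 cells/mL were given 10 μM compound for 30 min. Aliquots then went through 3 min of heating across 48°C-58°C, were pooled, and were extracted in PBS with 0.5% NP-40 at 4°C, and the supernatant after 21,000xg for 90 min was quantified by TMTpro 16plex LC-MS/MS with channel sums equalised. Thermal stability relative to control samples, from duplicates, is given as log2 fold change.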

log2 fold change, inactive:
TRIM23 (UniProt P36406) 0.013
TRIM28 (UniProt Q13263) -0.097
TPM2 (UniProt P07951) -0.07
TRIO (UniProt O75962) -0.018
TNPO2 (UniProt O14787) -0.176
TOR1AIP2 (UniProt Q9H496) -0.022
TRMT5 (UniProt Q32P41) -0.163
TOMM5 isoform 2 (UniProt Q8N4H5) -0.003
TRMT10A (UniProt Q8TBZ6) 0.016
TSC1 (UniProt Q92574) -0.693
TRAM1 (UniProt Q15629) -0.216
TSEN2 (UniProt Q8NCE0) -0.019
TOM1L1 (UniProt O75674) 0.072
TNPO1 (UniProt Q92973) -0.182
TRAM2 (UniProt Q15035) -0.243
TRIP12 isoform 3 (UniProt Q14669) 0.219
TRIM44 (UniProt Q96DX7) 0.003
TOR1AIP1 (UniProt Q5JTV8) 0.117
TRABD (UniProt Q9H4I3) 0.245
TRMT2B (UniProt Q96GJ1) 0.081
TRIM4 (UniProt Q9C037) 0.01
TRIP10 (UniProt Q15642) -0.024
TNIP1 (UniProt Q15025) -0.018
TRAPPC6A isoform 2 (UniProt O75865) -0.117
TRAPPC1 (UniProt Q9Y5R8) 0.027
TNIK isoform 3 (UniProt Q9UKE5) 0.12
TRMT10C (UniProt Q7L0Y3) -0.161
TP53BP1 isoform 2 (UniProt Q12888) -0.024
TOMM20 (UniProt Q15388) -0.135
TRAPPC3 (UniProt O43617) -0.019
TSC2 (UniProt P49815) -0.062
TNFRSF8 (UniProt P28908) 0.134
TRPM7 (UniProt Q96QT4) 0.023

Reprinted from the entries so far for reference:
log2 fold change, inactive:
TRIP10 (UniProt Q15642) -0.024
TNIP1 (UniProt Q15025) -0.018
TRAPPC6A isoform 2 (UniProt O75865) -0.117
TRAPPC1 (UniProt Q9Y5R8) 0.027
TNIK isoform 3 (UniProt Q9UKE5) 0.12
TRMT10C (UniProt Q7L0Y3) -0.161
